Results are given in words; binding and its absence hold for the method and conditions named. For some of these results: Binding seen in cells or lysates may run through a third protein. Some binding calls cover weakened binding; strength is not graded here.
Assays:
[1] = target: T1, Lipophilin B (human) (UniProt O95969); test: co-purification, non-reducing SDS-PAGE, N-terminal sequencing; broken by 10 mM dithiothreitol
T1 sequence: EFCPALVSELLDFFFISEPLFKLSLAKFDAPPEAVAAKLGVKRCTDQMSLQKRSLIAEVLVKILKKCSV

[2] = target: T1, Lipophilin B (human); test: SDS-PAGE with and without DTT, N-terminal sequencing of bands
[3] = target: T1, Lipophilin B (human); test: co-purification and SDS-PAGE
[4] = target: T1, Lipophilin B (human); test: SDS-PAGE, non-reducing vs 10 mM DTT

Measured: binding

B1: Mammaglobin (protein)
chain: SGCPLLENVISKTINPQVSKTEYKELLQEFIDDNATTNAIDELKECFLNQTDETLSNVEVFMQLIYDSSLCDLF
modifications: glycosylated (native protein from MDA-MB-415 cells)
binds: all assays above
